According to the supplement of paper PMC10849652:
The other results are listed elsewhere or left out.

By UniProt entry, the sequences of proteins in these tests, tags left out. Where a name states a change or a piece, a line headed by the entry shows the natural chain unless it says otherwise.
UniProt O95865: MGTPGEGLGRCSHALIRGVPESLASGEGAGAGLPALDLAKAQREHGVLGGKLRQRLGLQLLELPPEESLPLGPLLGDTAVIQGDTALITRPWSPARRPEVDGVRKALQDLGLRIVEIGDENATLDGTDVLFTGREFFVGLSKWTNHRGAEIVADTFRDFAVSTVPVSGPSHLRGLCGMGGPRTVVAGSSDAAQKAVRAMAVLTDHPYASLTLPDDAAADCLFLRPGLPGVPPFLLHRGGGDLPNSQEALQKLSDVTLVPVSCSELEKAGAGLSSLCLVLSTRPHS
UniProt Q16531, whole entry, looked up: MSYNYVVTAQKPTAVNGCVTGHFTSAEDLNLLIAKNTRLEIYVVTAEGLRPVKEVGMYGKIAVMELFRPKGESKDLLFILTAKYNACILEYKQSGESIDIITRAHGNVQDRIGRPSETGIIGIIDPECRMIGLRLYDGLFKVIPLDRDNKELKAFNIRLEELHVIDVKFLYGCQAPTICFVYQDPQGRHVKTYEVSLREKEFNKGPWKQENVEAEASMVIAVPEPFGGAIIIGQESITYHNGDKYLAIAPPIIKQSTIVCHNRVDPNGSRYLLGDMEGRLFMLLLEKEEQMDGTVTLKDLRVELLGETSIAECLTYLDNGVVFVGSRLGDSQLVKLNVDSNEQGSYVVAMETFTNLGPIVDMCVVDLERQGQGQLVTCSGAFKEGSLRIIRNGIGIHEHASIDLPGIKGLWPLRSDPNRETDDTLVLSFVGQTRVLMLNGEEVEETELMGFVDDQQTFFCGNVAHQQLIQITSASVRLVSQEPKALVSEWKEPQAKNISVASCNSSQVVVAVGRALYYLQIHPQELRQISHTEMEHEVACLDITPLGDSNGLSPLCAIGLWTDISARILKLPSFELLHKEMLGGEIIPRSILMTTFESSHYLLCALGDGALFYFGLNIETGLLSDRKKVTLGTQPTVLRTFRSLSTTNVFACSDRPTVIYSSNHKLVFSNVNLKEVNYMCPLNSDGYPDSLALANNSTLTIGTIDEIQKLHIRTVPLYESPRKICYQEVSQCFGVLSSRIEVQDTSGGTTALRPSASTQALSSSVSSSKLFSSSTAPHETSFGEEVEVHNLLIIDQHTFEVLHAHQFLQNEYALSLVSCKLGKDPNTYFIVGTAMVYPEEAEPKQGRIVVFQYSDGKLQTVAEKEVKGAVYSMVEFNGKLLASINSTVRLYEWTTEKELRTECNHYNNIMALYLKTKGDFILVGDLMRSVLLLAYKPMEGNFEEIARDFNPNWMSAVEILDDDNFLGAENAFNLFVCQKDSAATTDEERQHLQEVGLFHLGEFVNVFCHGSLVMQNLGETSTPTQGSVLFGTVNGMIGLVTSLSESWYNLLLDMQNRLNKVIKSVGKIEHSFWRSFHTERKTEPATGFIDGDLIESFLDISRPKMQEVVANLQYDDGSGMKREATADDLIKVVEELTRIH
UniProt Q13561, whole entry, looked up: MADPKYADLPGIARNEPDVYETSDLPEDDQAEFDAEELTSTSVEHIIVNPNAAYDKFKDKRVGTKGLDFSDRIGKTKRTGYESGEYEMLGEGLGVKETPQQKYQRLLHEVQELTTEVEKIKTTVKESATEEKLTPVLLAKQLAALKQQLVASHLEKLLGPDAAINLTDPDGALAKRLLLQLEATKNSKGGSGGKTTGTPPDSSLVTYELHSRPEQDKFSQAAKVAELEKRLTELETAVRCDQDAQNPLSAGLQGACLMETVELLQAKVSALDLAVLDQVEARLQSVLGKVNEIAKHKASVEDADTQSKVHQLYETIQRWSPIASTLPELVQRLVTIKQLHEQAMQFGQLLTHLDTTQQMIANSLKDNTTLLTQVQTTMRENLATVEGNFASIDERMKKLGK
UniProt Q9NUI1: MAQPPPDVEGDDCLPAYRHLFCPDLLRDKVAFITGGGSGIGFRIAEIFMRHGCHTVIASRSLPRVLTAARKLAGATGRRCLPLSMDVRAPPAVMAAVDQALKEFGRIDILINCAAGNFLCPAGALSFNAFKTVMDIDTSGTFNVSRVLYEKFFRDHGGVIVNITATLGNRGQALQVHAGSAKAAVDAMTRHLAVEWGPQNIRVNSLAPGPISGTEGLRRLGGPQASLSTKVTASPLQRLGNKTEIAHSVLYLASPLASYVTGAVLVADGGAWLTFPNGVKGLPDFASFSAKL
UniProt Q7Z4W1: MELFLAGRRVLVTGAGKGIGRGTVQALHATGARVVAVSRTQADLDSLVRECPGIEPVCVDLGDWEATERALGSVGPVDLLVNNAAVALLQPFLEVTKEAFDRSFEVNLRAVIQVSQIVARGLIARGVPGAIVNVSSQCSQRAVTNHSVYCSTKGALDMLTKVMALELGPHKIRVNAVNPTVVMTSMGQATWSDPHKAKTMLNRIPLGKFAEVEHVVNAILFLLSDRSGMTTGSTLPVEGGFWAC
UniProt P32321: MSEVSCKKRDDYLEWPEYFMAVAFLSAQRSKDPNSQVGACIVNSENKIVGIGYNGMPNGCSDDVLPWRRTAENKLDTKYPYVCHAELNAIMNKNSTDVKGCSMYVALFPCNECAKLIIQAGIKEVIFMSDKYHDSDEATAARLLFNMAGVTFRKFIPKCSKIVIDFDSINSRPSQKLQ
UniProt Q6PI48: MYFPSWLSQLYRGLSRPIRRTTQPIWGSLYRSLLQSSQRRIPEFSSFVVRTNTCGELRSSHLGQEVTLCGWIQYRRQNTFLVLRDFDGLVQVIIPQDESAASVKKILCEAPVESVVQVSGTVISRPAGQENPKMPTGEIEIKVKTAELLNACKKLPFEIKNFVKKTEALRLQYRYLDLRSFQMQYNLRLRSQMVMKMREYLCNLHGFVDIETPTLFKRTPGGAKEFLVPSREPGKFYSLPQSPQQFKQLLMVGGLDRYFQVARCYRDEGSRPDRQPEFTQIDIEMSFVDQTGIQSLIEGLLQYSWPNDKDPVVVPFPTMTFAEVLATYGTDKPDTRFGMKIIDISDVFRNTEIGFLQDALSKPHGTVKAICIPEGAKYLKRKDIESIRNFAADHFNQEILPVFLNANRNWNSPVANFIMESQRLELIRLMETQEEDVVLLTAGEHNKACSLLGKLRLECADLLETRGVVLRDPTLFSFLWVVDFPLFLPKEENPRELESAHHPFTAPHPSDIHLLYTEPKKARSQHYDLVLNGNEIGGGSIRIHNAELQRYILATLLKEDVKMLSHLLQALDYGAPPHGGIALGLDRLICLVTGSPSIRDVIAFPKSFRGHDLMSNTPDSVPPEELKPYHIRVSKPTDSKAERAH
UniProt Q5TAQ9: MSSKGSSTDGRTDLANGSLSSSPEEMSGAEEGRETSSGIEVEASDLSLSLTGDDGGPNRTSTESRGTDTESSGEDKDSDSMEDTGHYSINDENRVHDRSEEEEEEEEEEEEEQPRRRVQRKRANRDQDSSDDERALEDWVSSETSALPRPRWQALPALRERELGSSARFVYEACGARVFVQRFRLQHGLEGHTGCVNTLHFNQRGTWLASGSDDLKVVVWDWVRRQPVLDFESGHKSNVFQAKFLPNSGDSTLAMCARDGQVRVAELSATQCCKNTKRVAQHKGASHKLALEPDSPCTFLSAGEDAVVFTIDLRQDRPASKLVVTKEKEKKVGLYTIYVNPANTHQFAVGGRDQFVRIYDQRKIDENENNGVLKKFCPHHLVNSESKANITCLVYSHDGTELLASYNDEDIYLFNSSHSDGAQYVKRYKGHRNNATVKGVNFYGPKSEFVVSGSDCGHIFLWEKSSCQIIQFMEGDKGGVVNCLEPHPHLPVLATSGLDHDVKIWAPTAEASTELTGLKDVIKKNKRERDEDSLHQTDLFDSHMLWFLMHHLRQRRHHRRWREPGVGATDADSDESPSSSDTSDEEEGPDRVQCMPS
UniProt Q96EP5: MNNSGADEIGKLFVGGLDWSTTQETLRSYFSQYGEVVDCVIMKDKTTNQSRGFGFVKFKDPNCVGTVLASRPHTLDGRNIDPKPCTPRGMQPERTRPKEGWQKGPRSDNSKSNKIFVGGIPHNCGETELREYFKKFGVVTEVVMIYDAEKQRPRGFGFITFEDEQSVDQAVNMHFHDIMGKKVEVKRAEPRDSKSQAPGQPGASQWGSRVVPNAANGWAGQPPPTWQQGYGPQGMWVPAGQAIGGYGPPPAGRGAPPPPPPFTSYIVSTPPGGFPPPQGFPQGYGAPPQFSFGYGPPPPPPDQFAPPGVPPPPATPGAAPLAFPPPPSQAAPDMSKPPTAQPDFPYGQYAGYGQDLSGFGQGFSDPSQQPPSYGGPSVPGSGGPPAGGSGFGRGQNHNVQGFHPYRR
UniProt Q9Y6V7: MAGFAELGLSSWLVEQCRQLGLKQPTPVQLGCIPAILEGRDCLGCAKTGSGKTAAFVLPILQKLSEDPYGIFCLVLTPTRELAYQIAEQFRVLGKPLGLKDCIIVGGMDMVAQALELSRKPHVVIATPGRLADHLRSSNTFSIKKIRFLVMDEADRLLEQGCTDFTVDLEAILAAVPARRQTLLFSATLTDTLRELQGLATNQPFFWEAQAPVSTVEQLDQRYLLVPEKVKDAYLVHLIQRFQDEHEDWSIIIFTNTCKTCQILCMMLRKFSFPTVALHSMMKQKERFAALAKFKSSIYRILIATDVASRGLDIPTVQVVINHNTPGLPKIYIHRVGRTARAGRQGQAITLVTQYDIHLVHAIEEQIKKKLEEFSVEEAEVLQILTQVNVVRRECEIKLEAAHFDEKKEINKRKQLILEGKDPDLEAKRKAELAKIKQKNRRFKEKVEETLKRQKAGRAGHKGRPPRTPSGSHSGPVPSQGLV
UniProt Q5VZ89: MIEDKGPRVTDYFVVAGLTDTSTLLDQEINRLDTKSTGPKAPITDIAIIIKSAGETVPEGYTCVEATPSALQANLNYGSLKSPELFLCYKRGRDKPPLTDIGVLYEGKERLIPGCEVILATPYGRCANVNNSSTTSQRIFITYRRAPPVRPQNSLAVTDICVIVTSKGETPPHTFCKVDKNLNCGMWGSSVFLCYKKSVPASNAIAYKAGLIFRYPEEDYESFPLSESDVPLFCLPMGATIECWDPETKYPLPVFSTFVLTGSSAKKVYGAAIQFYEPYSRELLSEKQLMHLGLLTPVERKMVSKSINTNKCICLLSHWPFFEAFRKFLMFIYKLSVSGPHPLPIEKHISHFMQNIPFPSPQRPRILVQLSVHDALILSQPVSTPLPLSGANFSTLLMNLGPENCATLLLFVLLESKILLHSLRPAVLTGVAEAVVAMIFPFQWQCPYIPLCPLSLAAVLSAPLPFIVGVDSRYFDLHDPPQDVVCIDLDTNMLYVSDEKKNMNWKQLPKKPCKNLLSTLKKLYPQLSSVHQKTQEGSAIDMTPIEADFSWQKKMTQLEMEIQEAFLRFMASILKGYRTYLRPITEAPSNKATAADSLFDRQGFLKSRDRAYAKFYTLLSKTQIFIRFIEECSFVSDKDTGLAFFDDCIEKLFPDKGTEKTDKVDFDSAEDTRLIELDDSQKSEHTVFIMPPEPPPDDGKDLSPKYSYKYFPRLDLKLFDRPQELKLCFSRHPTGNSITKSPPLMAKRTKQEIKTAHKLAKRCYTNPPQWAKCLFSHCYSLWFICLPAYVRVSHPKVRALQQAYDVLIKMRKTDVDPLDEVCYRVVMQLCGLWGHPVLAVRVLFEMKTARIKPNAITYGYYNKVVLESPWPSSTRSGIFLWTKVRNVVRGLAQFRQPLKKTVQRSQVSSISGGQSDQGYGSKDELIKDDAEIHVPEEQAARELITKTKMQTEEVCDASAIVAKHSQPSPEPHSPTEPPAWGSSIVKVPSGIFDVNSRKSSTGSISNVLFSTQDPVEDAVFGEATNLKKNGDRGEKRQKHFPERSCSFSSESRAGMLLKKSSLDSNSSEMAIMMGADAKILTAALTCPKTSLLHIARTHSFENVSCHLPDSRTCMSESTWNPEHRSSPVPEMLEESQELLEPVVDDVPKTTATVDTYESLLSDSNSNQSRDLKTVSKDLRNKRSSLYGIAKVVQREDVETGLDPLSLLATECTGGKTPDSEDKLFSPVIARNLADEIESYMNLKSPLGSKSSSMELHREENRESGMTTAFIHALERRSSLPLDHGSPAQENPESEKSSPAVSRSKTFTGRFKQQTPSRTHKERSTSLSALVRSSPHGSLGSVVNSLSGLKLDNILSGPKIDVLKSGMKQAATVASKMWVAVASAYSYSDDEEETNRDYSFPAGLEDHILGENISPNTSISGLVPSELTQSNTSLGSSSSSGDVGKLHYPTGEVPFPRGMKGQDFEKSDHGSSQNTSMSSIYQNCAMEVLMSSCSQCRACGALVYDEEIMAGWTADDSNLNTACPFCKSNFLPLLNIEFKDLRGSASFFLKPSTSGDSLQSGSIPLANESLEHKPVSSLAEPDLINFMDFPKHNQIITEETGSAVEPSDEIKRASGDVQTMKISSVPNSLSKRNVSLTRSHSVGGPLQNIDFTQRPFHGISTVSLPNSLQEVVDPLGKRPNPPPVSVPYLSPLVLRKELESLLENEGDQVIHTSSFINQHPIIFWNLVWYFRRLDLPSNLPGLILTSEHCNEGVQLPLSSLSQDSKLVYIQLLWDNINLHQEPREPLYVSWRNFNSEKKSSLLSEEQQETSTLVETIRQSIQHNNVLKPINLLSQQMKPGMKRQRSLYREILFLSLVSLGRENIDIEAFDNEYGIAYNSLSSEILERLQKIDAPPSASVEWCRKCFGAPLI

Assays:
Assay in all cases: log2 fold change, soluble protein after heating vs DMSO (PISA); higher = thermal stabilisation; K562 lysate, 10 uM; active = over 0.2 and 3.5 SD of the protein, either way, in both replicates (recomputed)
vemurafenib = compound: CCCS(=O)(=O)Nc1ccc(F)c(C(=O)c2c[nH]c3ncc(-c4ccc(Cl)cc4)cc23)c1F [vemurafenib]
Procedure, shortened: (§1)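 Thermal stability, expressed as log-two fold change relative to solvent controls, is given from duplicates. Crude K562 extract in PBS pH 7.4 with 1 mM MgCl2, at 1 mg/mL protein, was treated with 10 μM compound for 30 min and heated in aliquots for 3 min across 48°C-58°C. After pooling, adjustment to 0.5% NP-40 at 4°C and centrifugation at 21,000xg for 90 min, supernatant protein was measured by TMTpro 16plex LC-MS/MS with channel sums equalised.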

[1] = compound: CCCS(=O)(=O)Nc1ccc(F)c(C(=O)c2c[nH]c3ncc(Cl)cc23)c1F
Procedure, shortened: as §1

barasertib = compound: CCN(CCCOc1ccc2c(Nc3cc(CC(=O)Nc4cccc(F)c4)[nH]n3)ncnc2c1)CCOP(=O)(O)O [barasertib]
Procedure, shortened: as §1

[2] = compound: CC[C@@H]1C(=O)N(C)c2cnc(Nc3ccc(C(=O)NC4CCN(C)CC4)cc3OC)nc2N1C1CCCC1
Procedure, shortened: as §1

volasertib = compound: CC[C@@H]1C(=O)N(C)c2cnc(Nc3ccc(C(=O)N[C@H]4CC[C@H](N5CCN(CC6CC6)CC5)CC4)cc3OC)nc2N1C(C)C [volasertib]
Procedure, shortened: as §1

[3] = compound: CCn1c(C(=O)N(C2CC2)C2CC2)cc2c3c(ncn3C)c(Nc3cc(C)n(C)n3)nc21
Procedure, shortened: as §1

[4] = compound: CCn1cc(-c2ccnc3[nH]c(-c4cccc(CN(C)C)c4)cc23)c(-c2ccc(NC(=O)N(C)C)cc2)n1
Procedure, shortened: as §1

[5] = compound: CN1CCC(CNc2ccc3ncc(-c4cccc(OC(F)(F)F)c4)n3n2)CC1
Procedure, shortened: as §1

saracatinib = compound: CN1CCN(CCOc2cc(OC3CCOCC3)c3c(Nc4c(Cl)ccc5c4OCO5)ncnc3c2)CC1 [saracatinib]
Procedure, shortened: as §1

sotrastaurin = compound: CN1CCN(c2nc(C3=C(c4c[nH]c5ccccc45)C(=O)NC3=O)c3ccccc3n2)CC1 [sotrastaurin]
Procedure, shortened: as §1

alvocidib = compound: CN1CC[C@H](c2c(O)cc(O)c3c(=O)cc(-c4ccccc4Cl)oc23)[C@H](O)C1 [alvocidib]
Procedure, shortened: as §1

Tubastatin A = compound: CN1CCc2c(c3ccccc3n2Cc2ccc(C(=O)NO)cc2)C1 [Tubastatin A]
Procedure, shortened: as §1

[6] = compound: CNC(=O)C1=CC=CC=C1NC2=NC(=NC=C2Cl)NC3=C(C=C(C=C3)N4CCOCC4)OC
Procedure, shortened: as §1

defactinib = compound: CNC(=O)c1ccc(Nc2ncc(C(F)(F)F)c(NCc3nccnc3N(C)S(C)(=O)=O)n2)cc1 [defactinib]
Procedure, shortened: as §1

[7] = compound: CNc1nc(-c2ccc3c(N)n[nH]c3c2)cc(N2C[C@@H](C(=O)NC3CCCCC3)CC[C@H]2C)n1
Procedure, shortened: as §1

encorafenib = compound: COC(=O)N[C@@H](C)CNc1nccc(-c2cn(C(C)C)nc2-c2cc(Cl)cc(NS(C)(=O)=O)c2F)n1 [encorafenib]
Procedure, shortened: as §1

[8] = compound: COC(=O)[C@H](CCSC)NC(=O)C1=C(C=C(C=C1)NC[C@H](CS)N)C2=CC=CC=C2
Procedure, shortened: as §1

alisertib = compound: COc1cc(Nc2ncc3c(n2)-c2ccc(Cl)cc2C(c2c(F)cccc2OC)=NC3)ccc1C(=O)O [alisertib]
Procedure, shortened: as §1

[9] = compound: COc1cc2nc(-c3cc(F)ccc3O)nc(N[C@@H]3CNC[C@H]3C(C)(C)O)c2cc1OC
Procedure, shortened: as §1

gefitinib = compound: COc1cc2ncnc(Nc3ccc(F)c(Cl)c3)c2cc1OCCCN1CCOCC1 [gefitinib]
Procedure, shortened: as §1

Measured: log2 fold change

DDAH2 (UniProt O95865)
inactive: vemurafenib -0.019 | [1] 0.01 | barasertib 0.199 | [2] -0.021 | volasertib 0.026 | [3] 0.001 | [4] 0.093 | [5] -0.07 | saracatinib -0.022 | sotrastaurin -0.001 | alvocidib 0.066 | Tubastatin A 0 | [6] 0.028 | defactinib 0.027 | [7] -0.011 | encorafenib -0.02 | [8] -0.005 | alisertib -0.008 | [9] -0.036 | gefitinib 0.009

DDB1 (UniProt Q16531)
inactive: vemurafenib -0.002 | [1] 0.01 | barasertib -0.001 | [2] -0.025 | volasertib 0.023 | [3] -0.007 | [4] 0 | [5] 0.044 | saracatinib -0.019 | sotrastaurin 0.019 | alvocidib 0.009 | Tubastatin A 0.01 | [6] -0.008 | defactinib -0.009 | [7] -0.012 | encorafenib 0.006 | [8] -0.026 | alisertib 0.014 | [9] 0.004 | gefitinib -0.006

DECR1 (UniProt Q16698)
inactive: vemurafenib -0.004 | [1] -0.006 | barasertib -0.012 | [2] -0.025 | volasertib -0.002 | [3] 0.009 | [4] 0.001 | [5] -0.01 | saracatinib -0.033 | sotrastaurin -0.01 | alvocidib -0.017 | Tubastatin A 0.092 | [6] -0.039 | defactinib 0.018 | [7] -0.005 | encorafenib -0.029 | [8] -0.025 | alisertib 0.014 | [9] 0.014 | gefitinib -0.006

DCTN2 isoform 3 (UniProt Q13561)
inactive: vemurafenib -0.005 | [1] -0.007 | barasertib 0.076 | [2] -0.001 | volasertib 0.034 | [3] -0.006 | [4] -0.129 | [5] 0.049 | saracatinib -0.025 | sotrastaurin -0.003 | alvocidib -0.023 | Tubastatin A 0.036 | [6] -0.008 | defactinib 0.004 | [7] 0.014 | encorafenib -0.011 | [8] 0 | alisertib 0 | [9] 0.002 | gefitinib 0.004

Quoted at random: two entries already listed, in no set order.
DDAH2 (UniProt O95865)
inactive: vemurafenib -0.019 | [1] 0.01 | barasertib 0.199 | [2] -0.021 | volasertib 0.026 | [3] 0.001 | [4] 0.093 | [5] -0.07 | saracatinib -0.022 | sotrastaurin -0.001 | alvocidib 0.066 | Tubastatin A 0 | [6] 0.028 | defactinib 0.027 | [7] -0.011 | encorafenib -0.02 | [8] -0.005 | alisertib -0.008 | [9] -0.036 | gefitinib 0.009

DECR1 (UniProt Q16698)
inactive: vemurafenib -0.004 | [1] -0.006 | barasertib -0.012 | [2] -0.025 | volasertib -0.002 | [3] 0.009 | [4] 0.001 | [5] -0.01 | saracatinib -0.033 | sotrastaurin -0.01 | alvocidib -0.017 | Tubastatin A 0.092 | [6] -0.039 | defactinib 0.018 | [7] -0.005 | encorafenib -0.029 | [8] -0.025 | alisertib 0.014 | [9] 0.014 | gefitinib -0.006

Remaining list, next part.

DECR2 (UniProt Q9NUI1)
inactive: vemurafenib -0.013 | [1] 0.125 | barasertib 0.036 | [2] -0.009 | volasertib -0.037 | [3] 0.044 | [4] -0.005 | [5] 0.016 | saracatinib 0.027 | sotrastaurin -0.015 | alvocidib 0.015 | Tubastatin A -0.024 | [6] -0.093 | defactinib 0.052 | [7] 0.028 | encorafenib 0.059 | [8] -0.112 | alisertib -0.028 | [9] 0.173 | gefitinib -0.062

DCXR (UniProt Q7Z4W1)
inactive: vemurafenib -0.013 | [1] -0.003 | barasertib 0.039 | [2] -0.002 | volasertib 0.01 | [3] 0.011 | [4] -0.037 | [5] 0.02 | saracatinib -0.002 | sotrastaurin -0.034 | alvocidib -0.047 | Tubastatin A 0.003 | [6] -0.011 | defactinib -0.009 | [7] 0.017 | encorafenib -0.019 | [8] 0.002 | alisertib 0.026 | [9] -0.022 | gefitinib -0.005

DCTD isoform 2 (UniProt P32321)
inactive: vemurafenib -0.015 | [1] -0.007 | barasertib -0.028 | [2] 0.005 | volasertib 0.025 | [3] 0.002 | [4] -0.004 | [5] 0.023 | saracatinib 0.025 | sotrastaurin -0.027 | alvocidib 0.013 | Tubastatin A -0.009 | [6] 0.022 | defactinib 0.01 | [7] -0.003 | encorafenib -0.024 | [8] -0.017 | alisertib 0.026 | [9] -0.002 | gefitinib -0.006

DARS2 (UniProt Q6PI48)
inactive: vemurafenib 0.056 | [1] 0.001 | barasertib 0.025 | [2] -0.008 | volasertib -0.075 | [3] 0.036 | [4] -0.022 | [5] -0.025 | saracatinib 0.003 | sotrastaurin 0.022 | alvocidib 0.04 | Tubastatin A -0.086 | [6] 0.004 | defactinib 0.037 | [7] -0.018 | encorafenib 0.041 | [8] 0.051 | alisertib 0.011 | [9] -0.004 | gefitinib -0.021

DCAF8 (UniProt Q5TAQ9)
inactive: vemurafenib -0.026 | [1] 0.016 | barasertib -0.005 | [2] 0.018 | volasertib 0.013 | [3] 0.006 | [4] -0.031 | [5] 0.032 | saracatinib -0.013 | sotrastaurin 0.013 | alvocidib -0.013 | Tubastatin A 0.037 | [6] -0.03 | defactinib -0.02 | [7] 0.027 | encorafenib -0.015 | [8] 0.058 | alisertib 0.067 | [9] -0.012 | gefitinib 0.064

DAZAP1 (UniProt Q96EP5)
inactive: vemurafenib 0.036 | [1] 0.043 | barasertib -0.017 | [2] 0.016 | volasertib 0.011 | [3] 0.065 | [4] 0.129 | [5] 0.032 | saracatinib 0.003 | sotrastaurin -0.109 | alvocidib -0.027 | Tubastatin A 0.042 | [6] -0.026 | defactinib -0.039 | [7] 0.058 | encorafenib -0.018 | [8] -0.045 | alisertib 0.009 | [9] -0.004 | gefitinib 0.034

DDX49 (UniProt Q9Y6V7)
inactive: vemurafenib 0.036 | [1] -0.008 | barasertib 0.039 | [2] -0.05 | volasertib -0.025 | [3] -0.023 | [4] -0.087 | [5] 0.03 | saracatinib -0.021 | sotrastaurin -0.007 | alvocidib -0.026 | Tubastatin A -0.007 | [6] 0.028 | defactinib 0.022 | [7] -0.09 | encorafenib 0.004 | [8] 0.006 | alisertib 0.009 | [9] -0.012 | gefitinib -0.078

DCUN1D5 (UniProt Q9BTE7)
inactive: vemurafenib 0.032 | [1] 0.012 | barasertib 0.073 | [2] -0.054 | volasertib -0.043 | [3] -0.041 | [4] -0.015 | [5] -0.047 | saracatinib -0.02 | sotrastaurin 0.013 | alvocidib 0.04 | Tubastatin A -0.107 | [6] -0.019 | defactinib 0.002 | [7] 0.027 | encorafenib 0.018 | [8] 0.138 | alisertib 0.001 | [9] 0.073 | gefitinib -0.026

DENND4C (UniProt Q5VZ89)
inactive: vemurafenib -0.038 | [1] 0.027 | barasertib 0.034 | [2] 0.044 | volasertib -0.004 | [3] 0.008 | [4] -0.068 | [5] -0.045 | saracatinib 0.056 | sotrastaurin 0.025 | alvocidib -0.021 | Tubastatin A -0.037 | [6] 0 | defactinib 0.028 | [7] 0.012 | encorafenib 0.064 | [8] 0.043 | alisertib 0.02 | [9] 0.016 | gefitinib 0.02

DAP (UniProt P51397)
inactive: vemurafenib -0.02 | [1] 0.007 | barasertib 0.097 | [2] 0.11 | volasertib 0.024 | [3] -0.04 | [4] -0.031 | [5] 0.092 | saracatinib 0.003 | sotrastaurin -0.008 | alvocidib -0.025 | Tubastatin A 0.043 | [6] 0.007 | defactinib 0.031 | [7] 0.019 | encorafenib -0.017 | [8] -0.035 | alisertib -0.019 | [9] 0.018 | gefitinib -0.071

DARS (UniProt P14868)
inactive: vemurafenib 0.02 | [1] 0.021 | barasertib 0.021 | [2] -0.099 | volasertib -0.043 | [3] 0.062 | [4] 0.026 | [5] -0.012 | saracatinib 0.018 | sotrastaurin 0.011 | alvocidib 0.012 | Tubastatin A -0.119 | [6] -0.012 | defactinib 0.012 | [7] -0.061 | encorafenib 0.028 | [8] 0.049 | alisertib 0.038 | [9] 0.003 | gefitinib -0.014

DDX42 (UniProt Q86XP3)
inactive: vemurafenib 0.007 | [1] 0.014 | barasertib 0.03 | [2] -0.005 | volasertib -0.013 | [3] -0.03 | [4] -0.008 | [5] -0.003 | saracatinib -0.024 | sotrastaurin 0.035 | alvocidib 0.031 | Tubastatin A 0.001 | [6] 0.018 | defactinib -0.021 | [7] 0.019 | encorafenib -0.005 | [8] 0.075 | alisertib 0.019 | [9] 0.01 | gefitinib -0.04
